From publication PMC3314686
No constants are given. Whether binding was seen depends on the method and setting. Binding seen in cells or lysates may run through a third protein. Some binding calls cover weakened binding; strength is not graded here.

The chains behind the UniProt entries cited, without tags or fusion partners. Where a name states a change or a piece, a line headed by the entry shows the natural chain unless it says otherwise.
UniProt P60520: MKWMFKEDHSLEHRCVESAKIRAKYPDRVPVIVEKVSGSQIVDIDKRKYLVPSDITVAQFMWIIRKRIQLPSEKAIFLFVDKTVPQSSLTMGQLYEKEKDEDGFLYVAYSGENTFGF
UniProt O95166: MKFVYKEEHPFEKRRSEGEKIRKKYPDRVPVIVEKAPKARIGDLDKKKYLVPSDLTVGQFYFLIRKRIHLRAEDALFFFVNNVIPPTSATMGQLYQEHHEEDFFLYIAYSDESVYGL
UniProt Q8IXH6: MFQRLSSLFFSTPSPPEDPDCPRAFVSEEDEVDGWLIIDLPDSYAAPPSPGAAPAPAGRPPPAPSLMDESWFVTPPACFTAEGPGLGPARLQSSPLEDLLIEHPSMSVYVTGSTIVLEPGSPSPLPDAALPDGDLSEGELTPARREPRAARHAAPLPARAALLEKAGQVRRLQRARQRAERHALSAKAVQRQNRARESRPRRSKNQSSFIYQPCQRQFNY
UniProt Q96A56: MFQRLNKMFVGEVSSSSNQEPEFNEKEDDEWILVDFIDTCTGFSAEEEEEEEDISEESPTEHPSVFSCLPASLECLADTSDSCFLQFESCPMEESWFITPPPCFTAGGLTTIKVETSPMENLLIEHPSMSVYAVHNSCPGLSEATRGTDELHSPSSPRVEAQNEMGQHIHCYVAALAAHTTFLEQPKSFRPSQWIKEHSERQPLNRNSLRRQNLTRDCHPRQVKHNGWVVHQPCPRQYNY

Experiments:
Experiment in all cases: pull-down; GST fusion proteins purified and immobilized on glutathione-sepharose beads; 35S-labelled in vitro translated GFP-tagged proteins diluted 20x in NET-N buffer (20 mM Tris-HCl pH 8.0, 100 mM NaCl, 1 mM EDTA, 0.5% Nonidet P-40), pre-cleared, incubated at least 2 h at 4°C; five washes; SDS-PAGE and autoradiography; only the target purified
GST-GABARAP-L2 (human) = GST-GABARAP-L2 (human) (UniProt P60520)
GST-LC3A (human) = GST-LC3A (human) (UniProt Q9H492)
GST-GABARAP (human) = GST-GABARAP (human) (UniProt O95166)

Substance: GFP-DOR (aa 27-46), LIR peptide of DOR (from UniProt Q8IXH6 27-46) (domain or fragment)
- binding (GST-GABARAP-L2 (human)): binds
- binding (GST-LC3A (human)): binds weakly
- binding (GST-GABARAP (human)): binds

Substance: GFP-DOR (human DOR/TP53INP2, full length) (from UniProt Q8IXH6 1-220)
- binding (GST-GABARAP-L2 (human)): binds
- binding (GST-LC3A (human)): binds
- binding (GST-GABARAP (human)): binds

Substance: GFP-TP53INP1 (aa 23-42), LIR peptide of TP53INP1 (from UniProt Q96A56 23-42) (domain or fragment)
- binding (GST-GABARAP-L2 (human)): binds
- binding (GST-LC3A (human)): binds
- binding (GST-GABARAP (human)): binds

Substance: GFP-TP53INP1 (human TP53INP1 isoform a, full length) (from UniProt Q96A56-1 1-240)
- binding (GST-GABARAP-L2 (human)): binds
- binding (GST-LC3A (human)): binds
- binding (GST-GABARAP (human)): binds
